At least one structure is not confirmed: it was looked up by name or label, or the drawing left a doubt.
How the values were obtained:
HIF1α = test: Activation of the hypoxia pathway (HIF1α level) in IHMGECs; type: cell-based, human; conditions: roxadustat 20-100 μM
IHMGECs = test: Lipid production and terminal differentiation of IHMGECs; type: cell-based, human

Cc1nc(C(=O)NCC(=O)O)c(O)c2ccc(Oc3ccccc3)cc12 [roxadustat]
level of HIF1α (HIF1α): significantly increasing
lipid production (IHMGECs): significantly induces
terminal differentiation (IHMGECs): significantly induces

From patent US11554048B2, “System and method for treating meibomian gland dysfunction” (The Schepens Eye Research Institute, Inc., priority 2018, dated 2023)
